B1: SEC31A (protein, UniProt O94979 1-1220)
chain: MKLKEVDRTAMQAWSPAQNHPIYLATGTSAQQLDATFSTNASLEIFELDLSDPSLDMKSCATFSSSHRYHKLIWGPYKMDSKGDVSGVLIAGGENGNIILYDPSKIIAGDKEVVIAQNDKHTGPVRALDVNIFQTNLVASGANESEIYIWDLNNFATPMTPGAKTQPPEDISCIAWNRQVQHILASASPSGRATVWDLRKNEPIIKVSDHSNRMHCSGLAWHPDVATQMVLASEDDRLPVIQMWDLRFASSPLRVLENHARGILAIAWSMADPELLLSCGKDAKILCSNPNTGEVLYELPTNTQWCFDIQWCPRNPAVLSAASFDGRISVYSIMGGSTDGLRQKQVDKLSSSFGNLDPFGTGQPLPPLQIPQQTAQHSIVLPLKKPPKWIRRPVGASFSFGGKLVTFENVRMPSHQGAEQQQQQHHVFISQVVTEKEFLSRSDQLQQAVQSQGFINYCQKKIDASQTEFEKNVWSFLKVNFEDDSRGKYLELLGYRKEDLGKKIALALNKVDGANVALKDSDQVAQSDGEESPAAEEQLLGEHIKEEKEESEFLPSSGGTFNISVSGDIDGLITQALLTGNFESAVDLCLHDNRMADAIILAIAGGQELLARTQKKYFAKSQSKITRLITAVVMKNWKEIVESCDLKNWREALAAVLTYAKPDEFSALCDLLGTRLENEGDSLLQTQACLCYICAGNVEKLVACWTKAQDGSHPLSLQDLIEKVVILRKAVQLTQAMDTSTVGVLLAAKMSQYANLLAAQGSIAAALAFLPDNTNQPNIMQLRDRLCRAQGEPVAGHESPKIPYEKQQLPKGRPGPVAGHHQMPRVQTQQYYPHGENPPPPGFIMHGNVNPNAAGQLPTSPGHMHTQVPPYPQPQPYQPAQPYPFGTGGSAMYRPQQPVAPPTSNAYPNTPYISSASSYTGQSQLYAAQHQASSPTSSPATSFPPPPSSGASFQHGGPGAPPSSSAYALPPGTTGTLPAASELPASQRTGPQNGWNDPPALNRVPKKKKMPENFMPPVPITSPIMNPLGDPQSQMLQQQPSAPVPLSSQSSFPQPHLPGGQPFHGVQQPLGQTGMPPSFSKPNIEGAPGAPIGNTFQHVQSLPTKKITKKPIPDEHLILKTTFEDLIQRCLSSATDPQTKRKLDDASKRLEFLYDKLREQTLSPTITSGLHNIARSIETRNYSEGLTMHTHIVSTSNFSETSAFMPVLKVVLTQANKLGV
B2: CDKN2AIP (protein, UniProt Q9NXV6 1-580)
chain: MAQEVSEYLSQNPRVAAWVEALRCDGETDKHWRHRRDFLLRNAGDLAPAGGAASASTDEAADAESGTRNRQLQQLISFSMAWANHVFLGCRYPQKVMDKILSMAEGIKVTDAPTYTTRDELVAKVKKRGISSSNEGVEEPSKKRVIEGKNSSAVEQDHAKTSAKTERASAQQENSSTCIGSAIKSESGNSARSSGISSQNSSTSDGDRSVSSQSSSSVSSQVTTAGSGKASEAEAPDKHGSASFVSLLKSSVNSHMTQSTDSRQQSGSPKKSALEGSSASASQSSSEIEVPLLGSSGSSEVELPLLSSKPSSETASSGLTSKTSSEASVSSSVAKNSSSSGTSLLTPKSSSSTNTSLLTSKSTSQVAASLLASKSSSQTSGSLVSKSTSLASVSQLASKSSSQTSTSQLPSKSTSQSSESSVKFSCKLTNEDVKQKQPFFNRLYKTVAWKLVAVGGFSPNVNHGELLNAAIEALKATLDVFFVPLKELADLPQNKSSQESIVCELRCKSVYLGTGCGKSKENAKAVASREALKLFLKKKVVVKICKRKYRGSEIEDLVLLDEESRPVNLPPALKHPQELL
B3: DDX42 (protein, UniProt Q86XP3 1-938)
chain: MNWNKGGPGTKRGFGFGGFAISAGKKEEPKLPQQSHSAFGATSSSSGFGKSAPPQLPSFYKIGSKRANFDEENAYFEDEEEDSSNVDLPYIPAENSPTRQQFHSKPVDSDSDDDPLEAFMAEVEDQAARDMKRLEEKDKERKNVKGIRDDIEEEDDQEAYFRYMAENPTAGVVQEEEEDNLEYDSDGNPIAPTKKIIDPLPPIDHSEIDYPPFEKNFYNEHEEITNLTPQQLIDLRHKLNLRVSGAAPPRPGSSFAHFGFDEQLMHQIRKSEYTQPTPIQCQGVPVALSGRDMIGIAKTGSGKTAAFIWPMLIHIMDQKELEPGDGPIAVIVCPTRELCQQIHAECKRFGKAYNLRSVAVYGGGSMWEQAKALQEGAEIVVCTPGRLIDHVKKKATNLQRVSYLVFDEADRMFDMGFEYQVRSIASHVRPDRQTLLFSATFRKKIEKLARDILIDPIRVVQGDIGEANEDVTQIVEILHSGPSKWNWLTRRLVEFTSSGSVLLFVTKKANAEELANNLKQEGHNLGLLHGDMDQSERNKVISDFKKKDIPVLVATDVAARGLDIPSIKTVINYDVARDIDTHTHRIGRTGRAGEKGVAYTLLTPKDSNFAGDLVRNLEGANQHVSKELLDLAMQNAWFRKSRFKGGKGKKLNIGGGGLGYRERPGLGSENMDRGNNNVMSNYEAYKPSTGAMGDRLTAMKAAFQSQYKSHFVAASLSNQKAGSSAAGASGWTSAGSLNSVPTNSAQQGHNSPDSPVTSAAKGIPGFGNTGNISGAPVTYPSAGAQGVNNTASGNNSREGTGGSNGKRERYTENRGSSRHSHGETGNRHSDSPRHGDGGRHGDGYRHPESSSRHTDGHRHGENRHGGSAGRHGENRGANDGRNGESRKEAFNRESKMEPKMEPKVDSSKMDKVDSKTDKTADGFAVPEPPKRKKSRWDS
B4: HNRNPH3 (protein, UniProt P31942 1-346)
chain: MDWVMKHNGPNDASDGTVRLRGLPFGCSKEEIVQFFQGLEIVPNGITLTMDYQGRSTGEAFVQFASKEIAENALGKHKERIGHRYIEIFRSSRSEIKGFYDPPRRLLGQRPGPYDRPIGGRGGYYGAGRGSMYDRMRRGGDGYDGGYGGFDDYGGYNNYGYGNDGFDDRMRDGRGMGGHGYGGAGDASSGFHGGHFVHMRGLPFRATENDIANFFSPLNPIRVHIDIGADGRATGEADVEFVTHEDAVAAMSKDKNNMQHRYIELFLNSTPGGGSGMGGSGMGGYGRDGMDNQGGYGSVGRMGMGNNYSGGYGTPDGLGGYGRGGGGSGGYYGQGGMSGGGWRGMY
B5: PRKRA (protein, UniProt O75569 1-313)
chain: MSQSRHRAEAPPLEREDSGTFSLGKMITAKPGKTPIQVLHEYGMKTKNIPVYECERSDVQIHVPTFTFRVTVGDITCTGEGTSKKLAKHRAAEAAINILKANASICFAVPDPLMPDPSKQPKNQLNPIGSLQELAIHHGWRLPEYTLSQEGGPAHKREYTTICRLESFMETGKGASKKQAKRNAAEKFLAKFSNISPENHISLTNVVGHSLGCTWHSLRNSPGEKINLLKRSLLSIPNTDYIQLLSEIAKEQGFNITYLDIDELSANGQYQCLAELSTSPITVCHGSGISCGNAQSDAAHNALQYLKIIAERK

The values below come from publication PMC4627417.

No constants are given. Whether binding was seen depends on the method and setting. In cells and extracts the contact can be indirect. A yes stands for co-enrichment or nearness to the bait. Other partners may have been found. Where a sequence is shown, tags or fusion partners need not be part of it.

The target in this experiment is 3XMyc-RPRD1B wild type (full length) (human) (UniProt Q9NQG5). The experiment is described as follows: affinity purification with mass spectrometry; SILAC: tetracycline-induced 3XMyc-RPRD1B WT (heavy) and MT (light) in 293 Flp-In cells, anti-Myc immunoprecipitates from total lysate combined and analysed by MS.
For the molecule B1, the binding entry is recorded as “binds”.
The value for B2 was “binds”; that for B3 was “binds”; that for B4 was “binds”.
The value for B5 was “binds”.
